{"sequences": {"note": "The chains behind the UniProt entries cited, without tags or fusion partners.", "UniProt Q01844": "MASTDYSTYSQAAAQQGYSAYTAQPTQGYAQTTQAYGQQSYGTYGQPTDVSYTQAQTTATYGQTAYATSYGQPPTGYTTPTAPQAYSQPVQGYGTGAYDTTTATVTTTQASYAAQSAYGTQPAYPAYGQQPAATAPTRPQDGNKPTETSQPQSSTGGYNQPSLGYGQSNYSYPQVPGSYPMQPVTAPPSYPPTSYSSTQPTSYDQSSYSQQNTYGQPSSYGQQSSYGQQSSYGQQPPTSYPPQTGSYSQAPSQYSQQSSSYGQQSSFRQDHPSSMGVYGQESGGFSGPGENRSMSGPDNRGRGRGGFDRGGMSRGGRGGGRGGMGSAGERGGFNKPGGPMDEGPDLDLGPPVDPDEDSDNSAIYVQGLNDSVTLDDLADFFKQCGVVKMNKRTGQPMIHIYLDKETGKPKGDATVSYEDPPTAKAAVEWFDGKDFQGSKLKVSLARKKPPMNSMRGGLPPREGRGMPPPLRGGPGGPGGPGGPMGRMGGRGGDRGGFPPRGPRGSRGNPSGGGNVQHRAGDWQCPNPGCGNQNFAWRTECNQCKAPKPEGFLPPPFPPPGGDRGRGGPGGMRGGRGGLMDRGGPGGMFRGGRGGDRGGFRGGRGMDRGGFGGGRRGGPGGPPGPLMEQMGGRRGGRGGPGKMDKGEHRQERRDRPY"}, "source": "paper PMC12747546", "about": "“Homoharringtonine suppresses acute myeloid leukemia progression by orchestrating EWSR1 phase separation in an m^6A‐YTHDF2‐dependent mechanism” (iMeta, 2025)", "target": "HA-tagged full-length EWSR1 (HA-EWSR1) (human) (UniProt Q01844)", "test": "affinity purification with mass spectrometry; HEK293T cells in SILAC medium transfected with HA-EWSR1 and treated with HHT (40 nM); NP40 lysate on HA-tag magnetic beads, 4°C, 4 h; bound proteins by mass spectrometry", "note": "No constants are given. Whether binding was seen depends on the method and setting. Binding seen in cells or lysates may run through a third protein. These calls come from enrichment with a bait or labelling near it, and not all partners need be listed.", "data": [{"binder": "HNRNPM (in HEK293T cells) (protein, UniProt P52272 1-730) MAAGVEAAAEVAATEIKMEEESGAPGVPSGNGAPGPKGEGERPAQNEKRKEKNIKRGGNRFEPYANPTKRYRAFITNIPFDVKWQSLKDLVKEKVGEVTYVELLMDAEGKSRGCAVVEFKMEESMKKAAEVLNKHSLSGRPLKVKEDPDGEHARRAMQKVMATTGGMGMGPGGPGMITIPPSILNNPNIPNEIIHALQAGRLGSTVFVANLDYKVGWKKLKEVFSMAGVVVRADILEDKDGKSRGIGTVTFEQSIEAVQAISMFNGQLLFDRPMHVKMDERALPKGDFFPPERPQQLPHGLGGIGMGLGPGGQPIDANHLNKGIGMGNIGPAGMGMEGIGFGINKMGGMEGPFGGGMENMGRFGSGMNMGRINEILSNALKRGEIIAKQGGGGGGGSVPGIERMGPGIDRLGGAGMERMGAGLGHGMDRVGSEIERMGLVMDRMGSVERMGSGIERMGPLGLDHMASSIERMGQTMERIGSGVERMGAGMGFGLERMAAPIDRVGQTIERMGSGVERMGPAIERMGLSMERMVPAGMGAGLERMGPVMDRMATGLERMGANNLERMGLERMGANSLERMGLERMGANSLERMGPAMGPALGAGIERMGLAMGGGGGASFDRAIEMERGNFGGSFAGSFGGAGGHAPGVARKACQIFVRNLPFDFTWKMLKDKFNECGHVLYADIKMENGKSKGCGVVKFESPEVAERACRMMNGMKLSGREIDVRIDRNA", "values": [{"measurement": "binding", "result": "binds"}]}]}
